{
  "sequences": {"note": "Chains of the proteins cited; added tags and fusions are not shown. Residues count along the entry.", "UniProt P04785, residues 20-509": "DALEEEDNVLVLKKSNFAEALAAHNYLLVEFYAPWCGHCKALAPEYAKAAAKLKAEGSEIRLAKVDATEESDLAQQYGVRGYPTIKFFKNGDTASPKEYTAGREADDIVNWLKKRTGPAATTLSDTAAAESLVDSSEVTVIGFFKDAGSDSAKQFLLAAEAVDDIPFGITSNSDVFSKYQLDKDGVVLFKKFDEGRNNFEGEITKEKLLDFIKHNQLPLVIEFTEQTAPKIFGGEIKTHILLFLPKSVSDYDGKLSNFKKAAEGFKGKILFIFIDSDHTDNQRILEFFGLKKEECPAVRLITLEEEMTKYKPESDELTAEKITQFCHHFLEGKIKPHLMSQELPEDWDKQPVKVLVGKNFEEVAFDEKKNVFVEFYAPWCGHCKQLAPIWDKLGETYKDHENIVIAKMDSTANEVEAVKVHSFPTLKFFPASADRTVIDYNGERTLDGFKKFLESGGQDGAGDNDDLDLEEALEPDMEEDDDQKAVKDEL", "UniProt O35303": "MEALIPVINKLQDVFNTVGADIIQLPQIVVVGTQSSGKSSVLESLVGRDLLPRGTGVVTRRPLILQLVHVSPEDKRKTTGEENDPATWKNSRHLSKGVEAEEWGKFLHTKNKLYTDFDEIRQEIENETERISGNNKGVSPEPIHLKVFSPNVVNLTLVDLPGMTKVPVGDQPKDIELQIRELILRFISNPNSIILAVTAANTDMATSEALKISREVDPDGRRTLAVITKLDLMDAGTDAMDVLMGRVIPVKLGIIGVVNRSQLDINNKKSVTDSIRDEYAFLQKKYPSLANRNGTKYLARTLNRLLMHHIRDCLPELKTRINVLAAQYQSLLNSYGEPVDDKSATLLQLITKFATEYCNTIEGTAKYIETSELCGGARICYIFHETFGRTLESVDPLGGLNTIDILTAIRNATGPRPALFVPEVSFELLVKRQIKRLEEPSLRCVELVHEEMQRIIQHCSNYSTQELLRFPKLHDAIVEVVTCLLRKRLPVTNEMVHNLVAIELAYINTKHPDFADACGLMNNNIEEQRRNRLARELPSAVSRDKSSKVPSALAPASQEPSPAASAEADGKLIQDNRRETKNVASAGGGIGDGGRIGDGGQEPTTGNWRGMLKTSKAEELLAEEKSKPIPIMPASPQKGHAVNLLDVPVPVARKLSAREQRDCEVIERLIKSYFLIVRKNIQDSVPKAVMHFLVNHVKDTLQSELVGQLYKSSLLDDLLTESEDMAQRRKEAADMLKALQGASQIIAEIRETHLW"},
  "source": "paper PMC6115394",
  "key": {"[1]": {"target": "Protein disulfide isomerase (rat (endogenous in hippocampal CA1 tissue)) (UniProt P04785)", "experiment": "condition: only 3 days after status epilepticus (SE); co-IP; as a1, but tissue taken 3 days after pilocarpine-induced status epilepticus (SE), from animals infused with vehicle or L-NAME; compared with non-SE control animals"}, "[2]": {"target": "Protein disulfide isomerase (rat (endogenous in hippocampal CA1 tissue)) (UniProt P04785)", "experiment": "co-IP; rat CA1 tissue lysed in RIPA buffer with protease and phosphatase inhibitors; equal amounts of protein precipitated with PDI antibody and protein G sepharose at 4 °C overnight; western blot for DRP1; non-SE (normal) animals infused with vehicle, L-NAME, control siRNA or PDI siRNA"}},
  "note": "Results are given in words; binding and its absence hold for the method and conditions named. Binding seen in cells or lysates may run through a third protein. Some binding calls cover weakened binding; strength is not graded here.",
  "data": [
    {"substance": "Dynamin-related protein 1 (from UniProt O35303 1-755)", "values": [
      {"measurement": "binding", "setting": "[1]", "value": "no binding"},
      {"measurement": "binding", "setting": "[2]", "value": "binds"}
    ]}
  ]
}
